Here are results for eleven compounds from PubChem BioAssay AID248 (DTP/NCI, 2004).

This assay deals with L1210 leukemia ip in BDF1 mice, survival T/C. The assay is described as follows: NCI In Vivo Anticancer Drug Screen. Data for tumor model L1210 Leukemia (intraperitoneal) in B6D2F1 (BDF1) mice. The conditions noted are these: T/C endpoint: mean survival time, higher T/C = longer survival.
[1] abbreviates: dose: 12.5 mg/kg/injection, schedule: Q01DX009 (ip), vehicle: saline.
[2] abbreviates: dose: 25.0 mg/kg/injection, schedule: Q01DX009 (ip), vehicle: saline.
The mark [3] stands for this setting: dose: 100.0 mg/kg/injection, schedule: Q01DX009 (ip), vehicle: saline.
The mark [4] stands for this setting: dose: 100.0 mg/kg/injection, schedule: Q04DX002 (ip), vehicle: saline.
The mark [5] stands for this setting: dose: 4.0 mg/kg/injection, schedule: Q01DX001 (ip), vehicle: saline.

The list shows only some results of the screen, not a fair sample: it gathers tests that were run many times, whatever their T/C, doses with no T/C, and many T/C values between a quarter and a half above the control. Further doses and runs are listed elsewhere. T/C: endpoint of the treated group in % of that of the vehicle group. Some entries give survivors of the animals treated and no T/C: the source files T/C as zero there, which appears to mark a toxic dose or a test without result, not a measured value. Some doses without a T/C left all or most animals alive at the check, yet need not have been tolerated: survival well below the control is almost never listed, so the zero probably covers shortened survival too. Survivors were counted at the toxicity check, usually on the fifth day, unless a day is given; later deaths do not show. Schedules are NCI's codes, read here as Q, the interval in days (D) or hours (H), X, the number of doses. Some schedules carry Z or #; the key to these is not given. For survival time, this PubChem deposit counts one and a half times the control or more as active, and values a quarter to a half above the control carry no call in these data; other NCI protocols may use other cut-offs. Some T/C values are followed by the survivors on the day toxicity was checked, most often the fifth; without a count, all were alive then.

Take `COc1cc2c(c(OC)c1O)-c1ccc(OC)c(=O)cc1[C@@H](NC(C)=O)CC2`: the T/C runs as follows: under setting [1], 140 % of control; under setting [2], 135 % of control; under setting [4], 127 % of control; (dose: 100.0 mg/kg/injection, schedule: Q04DX003 (ip), vehicle: saline) 126 % of control. Besides, the survivor count is given as 6 of 6 under setting [3]; 3 of 3 under setting [4]; 3 of 3 (dose: 200.0 mg/kg/injection, schedule: Q04DX002 (ip), vehicle: saline); 3 of 3 (dose: 400.0 mg/kg/injection, schedule: Q04DX002 (ip), vehicle: saline); 6 of 6 (dose: 400.0 mg/kg/injection, schedule: Q04DX003 (ip), vehicle: saline).
For `CC(C)(C)c1cc(Br)c(O)c(C(=O)O)c1`, the survivor count by setting is: (dose: 100.0 mg/kg/injection, schedule: Q01DX001 (ip), vehicle: carboxymethylcellulose (CMC)) 4 of 4; (dose: 400.0 mg/kg/injection, schedule: Q01DX001 (ip), vehicle: carboxymethylcellulose (CMC)) 2 of 4.
`CCCCCCCCCCCCOc1ccccc1`: the survivor count (dose: 400.0 mg/kg/injection, schedule: Q04DX003 (ip), vehicle: saline with Tween-80) is reported as 6 of 6.
Regarding `CNC(=O)OCC1=CC(=O)C=C(OC)C1=O`, the survivor count (dose: 12.5 mg/kg/injection, schedule: Q01DX009 (ip), vehicle: gum acacia) was 6 of 6; the survivor count (dose: 25.0 mg/kg/injection, schedule: Q01DX009 (ip), vehicle: gum acacia) is listed as 0 of 6; the survivor count (dose: 50.0 mg/kg/injection, schedule: Q04DX003 (ip), vehicle: gum acacia) is given as 0 of 6; the survivor count (dose: 100.0 mg/kg/injection, schedule: Q04DX003 (ip), vehicle: gum acacia) is reported as 0 of 6; the survivor count (dose: 200.0 mg/kg/injection, schedule: Q04DX003 (ip), vehicle: gum acacia) is 2 of 6; the survivor count (dose: 400.0 mg/kg/injection, schedule: Q04DX003 (ip), vehicle: gum acacia) is recorded as 1 of 6.
`O=C1C=C(O/C=C/C(C(F)(F)F)C(F)(F)F)C(=O)c2ccccc21`: the survivor count is given as 4 of 6 (dose: 25.0 mg/kg/injection, schedule: Q01DX009 (ip), vehicle: Klucel (hydroxypropylcellulose) (HPC)); 2 of 6 (dose: 50.0 mg/kg/injection, schedule: Q01DX009 (ip), vehicle: Klucel (hydroxypropylcellulose) (HPC)); 1 of 6 (dose: 115.0 mg/kg/injection, schedule: Q01DX001 (ip), vehicle: Klucel (hydroxypropylcellulose) (HPC)); 2 of 6 (dose: 170.0 mg/kg/injection, schedule: Q01DX001 (ip), vehicle: Klucel (hydroxypropylcellulose) (HPC)).
As for `CC(=O)[S][Pb]([c]1ccccc1)([c]1ccccc1)[c]1ccccc1`, the survivor count by setting is: (dose: 9.0 mg/kg/injection, schedule: Q01DX009 (ip), vehicle: saline) 1 of 6; (dose: 13.0 mg/kg/injection, schedule: Q01DX009 (ip), vehicle: saline) 0 of 6.
Turning to `O=P(Cc1ccccc1)(Cc1ccccc1)c1ccccc1`, the survivor count is on record as 6 of 6 (dose: 200.0 mg/kg/injection, schedule: Q04DX003 (ip), vehicle: Klucel (hydroxypropylcellulose) (HPC)) and 6 of 6 (dose: 400.0 mg/kg/injection, schedule: Q04DX003 (ip), vehicle: Klucel (hydroxypropylcellulose) (HPC)).
`CCC1/C=C/C=C/CC(C)C(O)C(C)(O)C(=O)C(C)C(O)C(C)C(=O)C(C)C(O)C(C)/C=C/C(=O)OC2C(C)C(CC1)OC1(OC(CC(C)O)C(C)CC1=O)C2C` (stereo not given) (tested in a mixture with another compound): the T/C runs as follows: (dose: 0.31 mg/kg/injection, schedule: Q01DX009 (ip), vehicle: saline with Tween-80) 136 % of control; (dose: 0.47 mg/kg/injection, schedule: Q01DX009 (ip), vehicle: saline) 142 % of control; (dose: 0.65 mg/kg/injection, schedule: Q01DX001 (ip), vehicle: saline) 125 % of control; (dose: 0.7 mg/kg/injection, schedule: Q01DX009 (ip), vehicle: saline with Tween-80) 125 % of control; (dose: 1.0 mg/kg/injection, schedule: Q01DX Z (ip), vehicle: other) 126 % of control; (dose: 1.0 mg/kg/injection, schedule: Q01DX Z (ip), vehicle: saline) 135 % of control. The T/C is 127 % of control (dose: 1.5 mg/kg/injection, schedule: Q01DX Z (ip), vehicle: saline); 132 % of control (dose: 2.0 mg/kg/injection, schedule: Q01DX001 (ip), vehicle: saline); 128 % of control [4 of 6 alive] under setting [5]. Also, the survivor count runs as follows: (dose: 0.65 mg/kg/injection, schedule: Q04DX003 (ip), vehicle: saline) 0 of 6; (dose: 0.72 mg/kg/injection, schedule: Q01DX009 (ip), vehicle: saline) 0 of 6; (dose: 1.08 mg/kg/injection, schedule: Q01DX009 (ip), vehicle: saline) 0 of 6; (dose: 1.3 mg/kg/injection, schedule: Q01DX001 (ip), vehicle: saline) 1 of 6; (dose: 2.3 mg/kg/injection, schedule: Q01DX Z (ip), vehicle: saline) 5 of 6; (dose: 2.6 mg/kg/injection, schedule: Q01DX001 (ip), vehicle: saline) 0 of 6. In addition, the survivor count is, setting by setting: (dose: 3.4 mg/kg/injection, schedule: Q01DX Z (ip), vehicle: saline) 1 of 6; under setting [5], 0 of 6; (dose: 5.0 mg/kg/injection, schedule: Q01DX Z (ip), vehicle: saline) 0 of 6; (dose: 6.0 mg/kg/injection, schedule: Q01DX001 (ip), vehicle: saline) 0 of 6; (dose: 8.0 mg/kg/injection, schedule: Q01DX001 (ip), vehicle: saline) 2 of 6; (dose: 12.0 mg/kg/injection, schedule: Q01DX Z (ip), vehicle: methylcellulose (MC)) 5 of 6. Besides, the survivor count (dose: 16.0 mg/kg/injection, schedule: Q01DX Z (ip), vehicle: methylcellulose (MC)) is 1 of 6.
With `CCCCn1nnc2ccc([N+](=O)[O-])cc2c1=O`, the survivor count (dose: 400.0 mg/kg/injection, schedule: Q01DX009 (ip), vehicle: Klucel (hydroxypropylcellulose) (HPC)) was 0 of 6.
As to `C/C(=N/NC(N)=O)C1CC2CCC1C2` (stereo not given), the survivor count was 0 of 6 (dose: 400.0 mg/kg/injection, schedule: Q01DX001 (ip), vehicle: saline) and 2 of 6 (dose: 400.0 mg/kg/injection, schedule: Q01DX009 (ip), vehicle: gum acacia).
Turning to `C=C(NC(=O)C(=C)NC(=O)c1csc(C2=NC3c4csc(n4)C4NC(=O)c5csc(n5)C(C(C)(O)C(C)O)NC(=O)C5CSC(=N5)/C(=C/C)NC(=O)C(C(C)O)NC(=O)c5csc(n5)C3(CC2)NC(=O)C(C)NC(=O)C(=C)NC(=O)C(=C)NC(=O)C(C(C)C)NC2C=Cc3c(C(C)O)cc(nc3C2O)C(=O)OC4C)n1)C(N)=O` (stereo not given), the T/C is 127 % of control under setting [1]; 135 % of control under setting [2]; 132 % of control (dose: 50.0 mg/kg/injection, schedule: Q01DX009 (ip), vehicle: saline); 132 % of control under setting [3].
